Measurements reported in PubChem BioAssay AID1508597 (Cure First, 2020)
This is an unselected part of the about 2,100 reagents, under one of the conditions tested. 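Calls flag viability under 80% in either arm, not effects specific to rucaparib; the reference for percent is not stated.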 Some reagents were tested in more than one well and are listed for each. Not stated in the record: the 100% reference.

Assay: 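Knock-downs altering ovarian cancer cell survival with or without PARP inhibitor rucaparib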 (primary screen)
System: human ovarian carcinoma lines grown from tumours: OCI-P5x (papillary serous) and OCI-C5x (clear cell)
Reagent: siRNA pool against human genes, 1.25 pmol siRNA per well
Timing: 72 h or 96 h, depending on the cell culture
Conditions: rucaparib 20 µM (about IC30) or vehicle, present until read-out
Rucaparib or vehicle: Rucaparib
Cell line: OCI-C5x (clear cell)
Measured: 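ATP luminescence measured at 72 or 96 h according to the culture, then normalised and expressed as percent viability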
Reading the numbers: viability, normalised: higher = more viable cells remaining
Rule for the call: 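a well counts as a hit if its normalised viability is under 80 percent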
Calls: active = viability under 80%; inactive = viability 80% or more

For FANCD2, technical replicate 1, the entry reads viability, normalised (%) = 51.6; active. For FANCD2, technical replicate 1, the values are viability, normalised (%) = 47.5; active. FANCD2, technical replicate 2 gave viability, normalised (%) = 43.8; active. FANCD2, technical replicate 2 scored viability, normalised (%) = 58.7; active. FANCD2, technical replicate 3 scored viability, normalised (%) = 46; active. FANCD2, technical replicate 3 gave viability, normalised (%) = 61.2; active.

For DGKH, technical replicate 1, the entry reads viability, normalised (%) = 56; active. DGKH, technical replicate 2 gave viability, normalised (%) = 79; active. With DGKH, technical replicate 3, the values are viability, normalised (%) = 60; active. For PIF1, technical replicate 1 the deposit lists viability, normalised (%) = 49.2; active. PIF1, technical replicate 2 scored viability, normalised (%) = 55.9; active. With PIF1, technical replicate 3 the deposit lists viability, normalised (%) = 39.7; active.

With MTOR, technical replicate 1 the deposit lists viability, normalised (%) = 77.6; active. MTOR, technical replicate 2 scored viability, normalised (%) = 59; active. MTOR, technical replicate 3 scored viability, normalised (%) = 64.5; active. ASXL3, technical replicate 1 showed viability, normalised (%) = 70.3; active. ASXL3, technical replicate 2 gave viability, normalised (%) = 56.9; active. ASXL3, technical replicate 3 gave viability, normalised (%) = 58.8; active.

With TNIK, technical replicate 1 the deposit lists viability, normalised (%) = 36.6; active. With TNIK, technical replicate 2, the entry reads viability, normalised (%) = 40.8; active. TNIK, technical replicate 3 gave viability, normalised (%) = 27.5; active.

Not a retest: an excerpt of the list.
FANCD2, technical replicate 1 | viability, normalised (%): 51.6; Call: active
FANCD2, technical replicate 1 | viability, normalised (%): 47.5; Call: active
FANCD2, technical replicate 2 | viability, normalised (%): 43.8; Call: active
FANCD2, technical replicate 2 | viability, normalised (%): 58.7; Call: active

Additional results follow:
For MAST2, technical replicate 1, the values are viability, normalised (%) = 80.9; inactive. MAST2, technical replicate 2 showed viability, normalised (%) = 57.5; active. With MAST2, technical replicate 3, the entry reads viability, normalised (%) = 63; active. H4C4, technical replicate 1 gave viability, normalised (%) = 42.9; active. With H4C4, technical replicate 2 the deposit lists viability, normalised (%) = 34.7; active. H4C4, technical replicate 3 gave viability, normalised (%) = 42.9; active.

For SPAG11B, technical replicate 1, the values are viability, normalised (%) = 53.2; active. SPAG11B, technical replicate 2 showed viability, normalised (%) = 44.9; active. SPAG11B, technical replicate 3 showed viability, normalised (%) = 62; active. FOXF2, technical replicate 1 scored viability, normalised (%) = 44.1; active. FOXF2, technical replicate 2 showed viability, normalised (%) = 58.4; active. For FOXF2, technical replicate 3, the entry reads viability, normalised (%) = 54.2; active.
